Assay results from US9173876B2, “Preparation and therapeutic applications of (2S,3R)-N-2-((3-pyridinyl)methyl)-1-azabicyclo[2.2.2]oct-3-yl)-3,5-difluorobenzamide” (Targacept, Inc., priority 2009, dated 2015).
At least one structure is not confirmed: it was looked up by name or label, or the drawing left a doubt.

Assays:
[1] = system: ovalbumin-sensitized mice; experiment: Airway hyperresponsiveness, Penh response to methacholine; format: in vivo, mouse; settings: reference standard, 3 mg/kg PO
Protocol: (§1) Using the method of Hamelmann et al, (2S,3R)—N-2-((3-pyridinyl)methyl)-1-azabicyclo[2.2.2]oct-3-yl)-3,5-difluorobenzamide was evaluated for possible inhibition of airway hyper-responsiveness in mice. Briefly, ovalbumin (OVA)-sensitized animals, 12 animals per group, were challenged by nasal inhalation with aerosolized 5% OVA for 25 min on days 21, 23, and 25. The mice were treated with vehicle or (2S,3R)—N-2-((3-pyridinyl)methyl)-1-azabicyclo[2.2.2]oct-3-yl)-3,5-difluorobenzamide subcutaneously (s.c.) twice daily from day 21 to day 26 or once daily intratracheally (i.t.), preceding ovalbumin aerosol challenge by 30 min on days 21, 23 and 25 as well as methacholine challenge or bronchoalveolar lavage fluids (BALF) harvest on day 26. Dexamethasone, the reference standard, was administered at 3 mg/kg orally (p.o.) once daily 60 min before OVA challenge on day 21, 23 and 25 and 60 min before methacholine provocation or BALF harvest on day 26. Noninvasive measurements of airway responsiveness were performed by using whole body plethysmography, in which increases in enhanced pause (Penh) serve as an index of airway obstruction. Responses to inhaled methacholine were measured and calculated as percentage of respective baseline values. […]

[2] = system: ovalbumin-sensitized mice; experiment: White blood cell and differential cell counts in BALF; format: in vivo, mouse; settings: reference standard, 3 mg/kg p.o.
Protocol: as §1

C[C@@H]1C[C@H]2[C@@H]3CCC4=CC(=O)C=C[C@]4(C)[C@@]3(F)[C@@H](O)C[C@]2(C)[C@@]1(O)C(=O)CO [Dexamethasone, reference compound]
Methacholine (10 and 30 mg/mL)-induced increase in Penh values [1]: significant inhibition
Increase in total WBC, neutrophils, lymphocytes, monocytes and eosinophils in BALF [2]: inhibited significantly
